Results are given in words; binding and its absence hold for the method and conditions named. For some of these results: A result given as binding can be weak or reduced; the word gives no strength.
Columns and labels:
[1] = molecular target: PbaB from Pyrococcus furiosus (Pyrococcus furiosus); experiment: SEC; 400 μM monomer of each protein mixed 1:1, dialyzed 12 h against 50 mM Tris-HCl pH 8.0, 200 mM NaCl, 2 mM DTT; HiTrapQ HP and HiLoad Superdex 200; both purified
[2] = molecular target: PbaA_(CΔ30), mutant PbaA with deletion of 30 C-terminal amino acid residues (Pyrococcus furiosus); experiment: as above
[3] = molecular target: PbaA_(CΔ30), mutant PbaA with deletion of 30 C-terminal amino acid residues (Pyrococcus furiosus); experiment: cryo-EM structure; purified PbaA_(CΔ30)/PF0014 complex; map EMD-0755 at 7.3 Å with D5 symmetry and 8.5 Å with C1 symmetry; both purified
[4] = molecular target: PbaA_(CΔ30), mutant PbaA with deletion of 30 C-terminal amino acid residues (Pyrococcus furiosus); experiment: HS-AFM; purified complexes, side views on bare mica, tapping mode, room temperature, 50 mM Tris-HCl pH 8.0, 150 mM NaCl; both purified

- binding [2]: binds
- binding [3]: binds
- binding [4]: binds
B1: PF0014 from Pyrococcus furiosus (natural protein, UniProt Q8U4R0 1-128, looked up)
chain: MVVEIPLLSGIARRTLDALMRNPIRTVEIRNARNYMTLEKVKEGDLVFLTYESLEDVMRGTEGIIAMVTRMEKSHQRVPWEESDEREISICRVQLKLVGLGRVVEVQEKNGVVFVKVREMLHHEISMG
notes: PF0014, Pyrococcus furiosus, an archaeal protein without functional annotation; Monomeric by HS-AFM when isolated; ten copies in the complex with PbaA
- binding [1]: no binding (tested: 400 μM monomer of each)

Source: article PMC6992696, “Supramolecular tholos-like architecture constituted by archaeal proteins without functional annotation” (Scientific Reports, 2020)
